According to article PMC4255730:
Positions count from the first letter of the chain named. Results are given in words; binding and its absence hold for the method and conditions named. In cells and extracts the contact can be indirect. Some entries that bind do so weakly or less than the wild type. Tags and fused reporters may be left off the sequences shown.

B1: OS9-mRFP (protein, UniProt Q8GWH3 24-282)
chain: DQIFPAHLVGTFSRNNREPKYKIEFLPEDSPFHPGDNLESMVMLDKHGNRFLCYLPKEEKATSGWTSSQQNISTVMMETQQLVKLKTPDELLQPLSEKCLFRQEGWWSYEFCHQKYVRQLHVEDENKIVQEFFLGTFDPEATAAFNQTVSDASTDASQRYHSHVYTNGTTCDLTGSPREVEVRFVCAETRAMVTSITELSTCKYALTVQCPTLCKHPLFQLEKPVSHTIHCNAIPVEEDATRNKEEQAVDESPKMIADS
B2: OS9R201A-mRFP (protein, UniProt Q8GWH3 24-282)
chain: B1 chain with R178A

Target: T1, SUBEX-C57Y-GFP (misfolded variant of the STRUBBELIG extracellular domain, C57Y, fused to GFP) (A. thaliana) (UniProt Q8RWZ1)
T1 sequence (chain, N-glycans at N70, N119, N243 (mainly oligomannosidic)): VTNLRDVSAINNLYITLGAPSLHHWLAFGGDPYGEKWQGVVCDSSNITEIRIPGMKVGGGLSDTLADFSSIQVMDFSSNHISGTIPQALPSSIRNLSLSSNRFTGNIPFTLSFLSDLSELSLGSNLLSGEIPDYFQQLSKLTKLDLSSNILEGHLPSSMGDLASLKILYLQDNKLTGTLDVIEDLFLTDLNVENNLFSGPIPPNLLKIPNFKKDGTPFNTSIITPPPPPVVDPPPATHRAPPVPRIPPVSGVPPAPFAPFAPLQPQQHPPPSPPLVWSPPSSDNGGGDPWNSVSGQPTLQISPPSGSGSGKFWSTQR
Assay: co-IP; GFP-tagged SUBEX variants captured on GFP trap beads (1.5 h, 4°C) from RIPA extracts of co-infiltrated N. benthamiana leaves, with or without 20 μM kifunensine; co-purified proteins detected by immunoblot with anti-HA or anti-mRFP

Row | Binder | binding
1 | B1 | binds
2 | B2 | binds
